# Assay results from PubChem BioAssay AID504467 (National Center for Advancing Translational Sciences (NCATS), 2011).
# The campaign covered roughly 330,000 compounds. About 7,700 (2.3%) were called active. The inconclusive results got no clear call from the source; some entries with a clear call stand among them for comparison. Calls follow the shape of the dose curve; as a rule, active = well fitted inhibition curve with a large enough effect; inconclusive = small, poorly fitted or top-dose-only effect, or effect the other way; inactive = flat fitted curve, though single readings scatter. Potencies of inconclusive entries are doubtful fits and often do not repeat.
# Test: qHTS screen for small molecules that inhibit ELG1-dependent DNA repair in human embryonic kidney (HEK293T) cells expressing luciferase-tagged ELG1; also: nearly all actives have a fitted effect of over 55% in size
# Conditions: HEK293T ELG1-luciferase reporter, luminescence, 16 h, DNA damage induced by 5-fluorouridine; series mostly up to 46.1 µM
# Procedure, shortened: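 5-Fluorouridine DNA damage + compound/DMSO, 2,000 cells/well, 16 h, 37 °C/5% CO2. ONE-Glo, 30 min RT, luminescence. Readout = decrease in reporter signal.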
# Potency is read from the fitted curve at half-maximal effect.
row,Compound,Potency
1,COC(=O)c1c(C)[nH]c(O)c1C=Nc1ccc(C#N)cc1,inactive
2,CC1CCc2c(sc(NC(=O)C3CCCO3)c2C#N)C1 (centres undefined),"inconclusive: 11.6 µM [activator, partial curve]"
3,COc1ccc(-n2nc(C(=O)NCC(=O)N3CCN(Cc4ccccc4)CC3)c3ccccc3c2=O)cc1OC,"inconclusive: 6.51 µM [inhibitor, single point]"
4,COCCn1c(C)cc(C(=O)CN2CCCCC2)c1C,inactive
5,N#C/C(=C\c1ccc[nH]1)C(=O)NCC1CCCO1 (centres undefined),"inconclusive: 29.1 µM [activator, single point]"
6,COc1ccc2c(c1)CCN1C2CCN2C(=O)CCC21 (centres undefined),inactive
7,COc1ccc(OC)c(C(C)NC(=O)C23CC4CC(CC(C4)C2)C3)c1 (centres undefined),inactive
8,CCOC(=O)Cc1csc(NC(=O)c2cc(OC)cc(OC)c2)n1,"inconclusive: 11.6 µM [inhibitor, partial curve, poor fit]"
9,Cn1ccnc1SCc1ccc([N+](=O)[O-])cc1,inactive
10,COc1ccc(C(=O)Nc2nc3ccccc3s2)c(OC)c1,active: 3.66 µM
11,CCCCn1c(NCCO)nc2ccccc21,inactive
12,COc1ccccc1NC(=O)Nc1ccc(-n2ccc(C(F)(F)F)n2)cc1,"inconclusive: 2.59 µM [activator, single point]"
13,CC1=CN2C(=N)/C(=C/c3ccc(C)o3)C(=O)N=C2S1,"inconclusive: 1.3 µM [activator, partial curve]"
14,Cc1ccc(NC(=O)/C=C/c2ccc3c(c2)OCO3)cc1S(=O)(=O)N1CCOCC1,"inconclusive: 18.4 µM [inhibitor, single point]"
15,CCOc1ccc(NC(=O)CSc2nc3cccnc3n2CC)cc1,"inconclusive: 23.1 µM [inhibitor, single point]"
16,O=C1CCc2cc(NS(=O)(=O)c3ccc(F)cc3)cc3c2N1CCC3,inactive
17,Cc1sc(NC(=O)CSc2nc(N)n(CC(=O)c3ccccc3)n2)c(C#N)c1C,"inconclusive: 16.4 µM [inhibitor, single point]"
18,O=C(CSc1nc(-c2ccccc2)cc(C(F)(F)F)n1)c1cccc([N+](=O)[O-])c1,active: 18.4 µM
19,Cc1nc2cc(C(=O)NCc3ccc4c(c3)OCO4)ccc2n1-c1ccc(Br)cc1,inactive
20,CCCn1nnc(NC(=O)c2ccccc2Cl)n1,"inconclusive: 20.6 µM [activator, partial curve]"
21,Cc1cccc(C(=O)NNC(=O)c2ccc(Cl)cc2)c1O,"inconclusive: 18.4 µM [activator, partial curve]"
22,Nc1ccccc1NC(=O)NC(=O)c1ccccc1,"inconclusive: 9.2 µM [activator, partial curve]"
23,Cc1ccc(NC(=O)CCNC(=O)c2ccc([N+](=O)[O-])cc2)cc1S(=O)(=O)N(C)C,active: 13 µM
24,CCOc1ccccc1C(=O)NCC(=O)N1CCN(Cc2ccc3c(c2)OCO3)CC1,"inconclusive: 1.16 µM [activator, partial curve, poor fit]"
25,Clc1cccc(CSc2nc3ccncc3[nH]2)c1,"inconclusive: 18.4 µM [activator, partial curve]"

row,Compound,Potency
1,COc1ccccc1OCc1cc(C(=O)N2CC3C[C@@H]4CC2C[C@H](C3)C4)no1,"inconclusive: 18.3 µM [activator, partial curve]"
2,CCN(CCNC(=O)C1CCCN(Cc2nc(-c3ccc(OC)cc3)oc2C)C1)c1ccccc1 (centres undefined),"inconclusive: 29.1 µM [inhibitor, single point]"
3,O=C(NNC(=O)c1ccccc1Br)c1ccccc1Cl,"inconclusive: 13 µM [activator, partial curve]"
4,CC(C)n1cc(/C=C/c2cc[n+](C)cc2)c2ccccc21,"inconclusive: 2.31 µM [inhibitor, partial curve]"
5,COc1ccc(OCC2c3cc(OC)c(OC)cc3CCN2C(=O)C(C)C)cc1 (centres undefined),"inconclusive: 23.1 µM [inhibitor, single point]"
6,CCn1c(N2CCC(Cc3ccccc3)CC2)nc2c1c(=O)[nH]c(=O)n2C,"inconclusive: 29.1 µM [inhibitor, single point]"
7,Cc1cc(C)n(-c2ccc(C(=O)Nc3nnc(C)s3)cc2)n1,"inconclusive: 9.2 µM [activator, partial curve]"
8,COc1ccc(C(=O)NCc2nnc(SCC(=O)c3ccccc3)n2C)cc1OC,inactive
9,O=C(CSc1nnc2sc3ccccc3n12)N1CCN(c2ccccc2)CC1,"inconclusive: 20.6 µM [inhibitor, single point]"
10,CCOn1c(=O)c(-c2cc(OC)ccc2OC)[n+]([O-])c2ccccc21,inactive
11,CCN1CCCc2cc(CN(CCN3CCOCC3)C(=S)Nc3ccccc3C)ccc21,inactive
12,C[C@@H]1CN([C@@H](C)CO)C(=O)c2cc(NC(=O)C3CC3)ccc2O[C@@H]1CN(C)C(=O)NC1CCCCC1,inactive
13,COC(=NC(C)C)NC(C)C,inactive
14,Cc1ccc(OCCCn2ccnc2)cc1C,inactive
15,CCOc1cccc(/C=C2\NC(=S)N(c3ccccc3)C2=O)c1O,"inconclusive: 3.66 µM [activator, full curve]"
16,COc1ccc(Cc2nnc(SCC(=O)c3ccc4c(c3)OCO4)o2)cc1,inactive
17,O=C(NC(=S)/C(=C1\CCCCCN1)[N+](=O)[O-])c1ccccc1,"inconclusive: 0.184 µM [activator, partial curve]"
18,COc1ccc(Cl)c2sc(N3CCN(C(C)=O)CC3)nc12,inactive
19,COc1ccc(-n2c(CCC(=O)O)ccc2-c2ccccc2)cc1,inactive
20,Cc1ccc2c(c1)C(O)(CC(=O)c1ccc3c(c1)OCO3)C(=O)N2 (centres undefined),"inconclusive: 0.184 µM [activator, full curve]"
21,Cc1ccc(C(=O)Nc2ccc(Cc3ccncc3)cc2)cc1[N+](=O)[O-],"inconclusive: 29.1 µM [inhibitor, single point]"
22,COCCCNc1ccc([N+](=O)[O-])cc1C(=O)Nc1cccc(C)n1,"inconclusive: 16.4 µM [inhibitor, single point]"
23,CC(C)(C)c1ccc(-c2nc(-c3ccncc3)no2)cc1,"inconclusive: 1.16 µM [activator, partial curve]"
24,Cc1cc(C)c(S(=O)(=O)NCC(c2ccco2)N2CCc3ccccc3C2)c(C)c1 (centres undefined),inactive
25,O=C(NC1CCCCC1)c1cc(-c2ccco2)on1,"inconclusive: 8.2 µM [activator, partial curve]"

# 3 compounds already listed, arranged by SMILES length, low to high.
row,Compound,Potency
5,N#C/C(=C\c1ccc[nH]1)C(=O)NCC1CCCO1 (centres undefined),"inconclusive: 29.1 µM [activator, single point]"
13,CC1=CN2C(=N)/C(=C/c3ccc(C)o3)C(=O)N=C2S1,"inconclusive: 1.3 µM [activator, partial curve]"
12,C[C@@H]1CN([C@@H](C)CO)C(=O)c2cc(NC(=O)C3CC3)ccc2O[C@@H]1CN(C)C(=O)NC1CCCCC1,inactive

# More entries follow.

row,Compound,Potency
1,Cc1cccc(N2C(=O)CC(Sc3nc(C)cc(C)n3)C2=O)c1 (centres undefined),inactive
2,CNc1nnc(SCC(=O)N2c3ccccc3NC(=O)CC2C)s1 (centres undefined),"inconclusive: 20.6 µM [activator, partial curve, poor fit]"
3,CCc1ccc(-n2c(Cc3ccccc3)n[nH]c2=S)cc1,inactive
4,COc1ccc(NC(=O)C2CCCN(c3cnccn3)C2)cc1 (centres undefined),inactive
5,COc1cc(OC)cc(C(=O)NC(=S)N(Cc2ccccc2)C(C)C)c1,"inconclusive: 10.3 µM [inhibitor, partial curve]"
6,CCOc1cc(/C=N/NC(N)=O)cc(Br)c1OCC(=O)Nc1cccc2ccccc12,"inconclusive: 2.06 µM [inhibitor, partial curve, poor fit]"
7,Cc1nn(Cc2ccccc2Cl)c(C)c1C(=O)NCc1ccco1,inactive
8,O=C(c1cc(-c2ccccc2)nc2ccccc12)N1CCCc2ccccc21,active: 18.4 µM
9,COc1cc2c(cc1OC)-c1cc(Nc3cccc(C)c3)nc(=O)n1CC2,"inconclusive: 29.1 µM [inhibitor, single point]"
10,CC1CCN(C(=O)COC(=O)Cn2cnc3ccccc32)CC1,inactive
11,Cc1ccc(S(=O)(=O)N2CCCC2C(=O)NCc2ccncc2)cc1 (centres undefined),"inconclusive: 25.9 µM [inhibitor, single point]"
12,O=C(NNC1=C(C(=O)C(F)(F)F)CCC1)c1ccc(Cl)cc1,"inconclusive: 25.9 µM [inhibitor, partial curve, poor fit]"
13,CCNc1nc(OCC)nc(N2CCC(Cc3ccccc3)CC2)n1,inactive
14,OCCN1CCN(CCSc2ccccc2)CC1,inactive
15,Cc1cc(C(=O)CS(=O)(=O)c2ccc(F)cc2)cc(C)c1O,"inconclusive: 18.3 µM [activator, single point]"
16,COc1ccc(/C=N/NC(=O)Cc2csc(Nc3cccc(C(F)(F)F)c3)n2)c(OC)c1,"inconclusive: 29.1 µM [inhibitor, single point]"
17,COCc1[nH]nc2c1C(c1ccc(OC)c(OC)c1)C(C#N)=C(N)O2 (centres undefined),"inconclusive: 23.1 µM [activator, single point]"
18,CN(C)NC(=O)c1cccc(Cl)c1,"inconclusive: 4.61 µM [activator, partial curve, poor fit]"
19,COc1ccc(NS(=O)(=O)c2ccc(SC)cc2)cc1,"inconclusive: 16.4 µM [inhibitor, partial curve]"
20,S=c1[nH]nc(Nc2ccccc2Cl)s1,"inconclusive: 6.51 µM [activator, single point]"
21,O=C(NCC1COc2ccccc2O1)c1ccc(NC(=O)C(c2ccccc2)c2ccccc2)cc1 (centres undefined),"inconclusive: 29.1 µM [inhibitor, single point]"
22,CCCCn1c(=O)[nH]c(=O)c2c1nc(COc1ccc(C#N)cc1)n2CCC,"inconclusive: 23.1 µM [inhibitor, single point]"
23,CC(=O)Nc1cccc(NCC(=O)Nc2cc(S(=O)(=O)N3CCCCC3)ccc2Cl)c1,"inconclusive: 23.1 µM [inhibitor, partial curve, poor fit]"
24,CCOc1ccccc1C(=O)Nc1cc2c(cc1N1CCCC1)n(CC)c(=O)n2CC,active: 8.2 µM
